# Data as given in patent US20110146678A1, “PROCESS FOR IMPROVING CRYSTALLINITY” (priority 2008, published 2011).
# “And” between values parts separate entries of the source, which are not always exact repeats. Equal entries are not always repeated. For part of these data: At least one compound was matched to its structure with a doubt left. Some results were stated once for a whole list of compounds, not compound by compound.
# Columns and labels:
# Type in all cases: physicochemical
# [1] = Particle size by Sympatec HELOS laser diffraction / optical microscopy
# Text: The particle size can be measured by laser diffraction techniques: Light from a laser is shone into a cloud of particles, which are suspended in a transparent gas such as air. The particles scatter the light; smaller particles scattering the light at larger angles than bigger particles. The scattered light can be measured by a series of photodetectors placed at different angles. This is known as the diffraction pattern for the sample. The diffraction pattern can be used to measure the size of the particles using well documented light scattering theory. The particles are assumed to be spherical but few particles are actually spherical. The particle diameters are calculated from the measured volume of the particle, but assume a sphere of equivalent volume.
# Budesonide (5 g) was dissolved in 100 mL of dichloromethane. The samples of budesonide powder collected in the ultrasonic chamber were produced using a Büchi-290 laboratory-scale spray dryer […], Büchi, Switzerland). The solution was atomized using nitrogen at 7 bar flowing at approximately at 10 Lpm (Litre/minute). The aspirator was set at 100% and flow rate of solution was set to […]. The gas temperature was set to 120° C. Budesonide particles were collected the ultrasonic chamber connected to the end of high performance cyclone separator. In order to apply ultrasound to the spray dried particles, the collection ultrasonic chamber was filled with heptane thermoregulated at 25° C. and was fitted with an ultrasonic probe resonating at 20 kHz. Ultrasound at 20 W power was applied between 30 minutes and 1 hour. The resulting particle slurry was spray dried and particles characterized by optical microscopy and DSC (Differential Scanning calorimetry). The size of the particles were typically in the range of 1-7 μm.
# The D(10), D(50), D(90) for two representative samples were 1.21, 3.03, 4.63 μm and 1.05, 2.99, 3.76 μm respectively as determined by Sympatec HELOS laser diffraction. […]
# [2] = Respirable fraction / FPF by Next Generation Impactor (general summary); settings: particles of the present invention vs prior art
# Text: The particle size distribution of the aerosol formulations according to the invention may be measured by conventional techniques, for example by using a Next Generation Impactor (NGI) with pre-separator for example by cascade impaction or by the “Twin Impinger” analytical process. As used herein reference to the “Twin Impinger” assay means “Determination of the deposition of the emitted dose in pressurised inhalations using apparatus A” as defined in British Pharmacopoeia 1988, pages A204-207, Appendix XVII C. Such methods involve filling the pre-separator with HPLC mobile phase and the cups of the NGI cups were coated with 1% v/v silicone oil in hexane to eliminate particle bounce. […] The mass of drug deposited on each part of the NGI can then be determined by HPLC. The FPD determined represents the mass of drug collected on stages 3-8 of the NGI. The FPF emitted dose is also determined. The aerosolisation efficiency as determined by percentage fine particle fraction (% FPF) or respirable fraction is also assessed.
# Such techniques enable the “respirable fraction” of the aerosol formulations to be calculated. As used herein reference to “respirable fraction” means the amount of active ingredient collected in the lower chamber in the NGI per actuation expressed as a percentage of the total amount of active ingredient delivered per actuation using the method described above. […]
# [3] = Surface energy by Inverse Gas Chromatography at finite and infinite dilution; settings: IGC, FIG. 21
# [4] = pMDI formulation, particle fraction distribution on NGI stages; settings: stage 5 cut-off 1.36 μm
# Description: Both samples were produced in a similar manner to sample 2 of Example 2. Sample 1 was prepared from atomization of a 3% solution of fluticasone propionate in 20% dichloromethane in methanol (3 g in 100 ml) and Sample 5 was prepared from atomization of 3% solution in acetone (3 g in 100 ml). […] The FPF values were 11.80% and 13.80% on stage 5 for samples 5 and 1 respectively compared with 6.20% for micronized material.
# [5] = Sympatec HELOS laser diffraction
smiles,measurement,setting,value
CCCC1O[C@@H]2C[C@H]3[C@@H]4CCC5=CC(=O)C=C[C@]5(C)[C@H]4[C@@H](O)C[C@]3(C)[C@]2(C(=O)CO)O1 (stereo partly drawn) [Budesonide],D(10),[1]; [5],1.21 μm and 1.05 μm
same,D(50),[1]; [5],3.03 μm and 2.99 μm
same,D(90),[1]; [5],4.63 μm and 3.76 μm
same,"size of the particles, typical range",[1]; after ultrasound treatment and spray drying of slurry,1-7 μm
same,increase in FPF compared to the prior art,[2],53%
same,surface energy at finite versus infinite dilution,[3]; listed as Budesonide particles of the present invention,very similar and near identical
"CCC(=O)O[C@]1(C(=O)SCF)[C@H](C)C[C@H]2[C@@H]3C[C@H](F)C4=CC(=O)C=C[C@]4(C)[C@@]3(F)[C@@H](O)C[C@@]21C [Sample 1, fluticasone propionate]",increase of FPF on stage 5 compared with micronized material,[4],over 100%
"CCC(=O)O[C@]1(C(=O)SCF)[C@H](C)C[C@H]2[C@@H]3C[C@H](F)C4=CC(=O)C=C[C@]4(C)[C@@]3(F)[C@@H](O)C[C@@]21C [Sample 5, fluticasone propionate]",increase of FPF on stage 5 compared with micronized material,[4],over 100%
"CCCC1O[C@@H]2C[C@H]3[C@@H]4CCC5=CC(=O)C=C[C@]5(C)[C@H]4[C@@H](O)C[C@]3(C)[C@]2(C(=O)CO)O1 (stereo partly drawn) [micronised Budesonide, Budesonide, reference compound]",surface energy at finite versus infinite dilution,[3],dramatic variances
